Source: article PMC5471453 (Chemical Science, 2017)

Assay: peptide synthesis
Details: conjugation step

DOX-FCPPs-PyTPE (TCNTP) showed a conjugation yield of 76%.
